In US20130331317A1:
No constants are given. Whether binding was seen depends on the method and setting. Some binding calls cover weakened binding; strength is not graded here. Where a sequence is shown, tags or fusion partners need not be part of it.

The chains behind the UniProt entries cited, without tags or fusion partners. Where a name states a change or a piece, a line headed by the entry shows the natural chain unless it says otherwise.
UniProt P11362: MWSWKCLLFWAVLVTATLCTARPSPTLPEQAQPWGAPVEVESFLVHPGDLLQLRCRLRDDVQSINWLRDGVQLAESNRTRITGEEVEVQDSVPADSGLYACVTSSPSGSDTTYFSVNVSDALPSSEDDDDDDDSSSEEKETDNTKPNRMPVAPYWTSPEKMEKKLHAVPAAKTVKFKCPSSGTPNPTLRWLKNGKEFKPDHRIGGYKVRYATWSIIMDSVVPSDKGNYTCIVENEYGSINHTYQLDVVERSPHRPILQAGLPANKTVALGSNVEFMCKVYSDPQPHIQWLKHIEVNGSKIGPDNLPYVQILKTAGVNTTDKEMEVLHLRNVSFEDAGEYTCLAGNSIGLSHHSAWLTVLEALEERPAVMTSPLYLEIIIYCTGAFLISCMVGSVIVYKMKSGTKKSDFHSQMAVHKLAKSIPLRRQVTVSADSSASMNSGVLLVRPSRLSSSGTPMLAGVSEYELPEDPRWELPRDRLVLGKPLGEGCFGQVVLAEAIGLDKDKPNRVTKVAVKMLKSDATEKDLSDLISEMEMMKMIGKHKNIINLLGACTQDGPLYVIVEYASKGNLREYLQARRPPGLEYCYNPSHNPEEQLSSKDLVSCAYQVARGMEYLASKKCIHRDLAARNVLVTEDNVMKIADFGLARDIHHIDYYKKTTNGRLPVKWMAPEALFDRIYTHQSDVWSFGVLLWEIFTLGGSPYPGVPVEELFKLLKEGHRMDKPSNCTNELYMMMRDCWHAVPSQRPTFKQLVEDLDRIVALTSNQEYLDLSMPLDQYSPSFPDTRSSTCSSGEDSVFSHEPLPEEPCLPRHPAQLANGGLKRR

Legend:
[1] = biological target: binary complex of FGFR1c ligand-binding domain with murine βKlotho ectodomain (murine; human) (UniProt P11362); experiment: SPR competition; competitor mixed with βKlotho-FGFR1c complex, passed over immobilised FGF21
[2] = biological target: binary complex of FGFR1c ligand-binding domain with murine βKlotho ectodomain (murine; human) (UniProt P11362); experiment: SPR competition; increasing concentrations of competitor mixed with a fixed concentration of βKlotho-FGFR1c complex, passed over an FGF21 chip

binding [1]: binds
binding [2]: binds
B1: FGF2^ΔHBScore-FGF21^C-tail chimera (FGF2 M1 to M151 with K128D/R129Q/K134V, fused to FGF21 P168 to S209) (ligand)
chain: MAAGSITTLPALPEDGGSGAFPPGHFKDPKRLYCKNGGFFLRIHPDGRVDGVREKSDPHIKLQLQAEERGVVSIKGVSANRYLAMKEDGRLLASKSVTDECFFFERLESNNYNTYRSRKYTSWYVALDQTGQYVLGSKTGPGQKAILFLPMPGLPPALPEPPGILAPQPPDVGSSDPLSMVGPSQGRSPSYAS
